Results are given in words; binding and its absence hold for the method and conditions named. Binding seen in cells or lysates may run through a third protein. Some results given as binding are weak or reduced against the parent protein; the word gives no strength.

By UniProt entry, the sequences of proteins in these tests, tags left out.
UniProt Q6R327: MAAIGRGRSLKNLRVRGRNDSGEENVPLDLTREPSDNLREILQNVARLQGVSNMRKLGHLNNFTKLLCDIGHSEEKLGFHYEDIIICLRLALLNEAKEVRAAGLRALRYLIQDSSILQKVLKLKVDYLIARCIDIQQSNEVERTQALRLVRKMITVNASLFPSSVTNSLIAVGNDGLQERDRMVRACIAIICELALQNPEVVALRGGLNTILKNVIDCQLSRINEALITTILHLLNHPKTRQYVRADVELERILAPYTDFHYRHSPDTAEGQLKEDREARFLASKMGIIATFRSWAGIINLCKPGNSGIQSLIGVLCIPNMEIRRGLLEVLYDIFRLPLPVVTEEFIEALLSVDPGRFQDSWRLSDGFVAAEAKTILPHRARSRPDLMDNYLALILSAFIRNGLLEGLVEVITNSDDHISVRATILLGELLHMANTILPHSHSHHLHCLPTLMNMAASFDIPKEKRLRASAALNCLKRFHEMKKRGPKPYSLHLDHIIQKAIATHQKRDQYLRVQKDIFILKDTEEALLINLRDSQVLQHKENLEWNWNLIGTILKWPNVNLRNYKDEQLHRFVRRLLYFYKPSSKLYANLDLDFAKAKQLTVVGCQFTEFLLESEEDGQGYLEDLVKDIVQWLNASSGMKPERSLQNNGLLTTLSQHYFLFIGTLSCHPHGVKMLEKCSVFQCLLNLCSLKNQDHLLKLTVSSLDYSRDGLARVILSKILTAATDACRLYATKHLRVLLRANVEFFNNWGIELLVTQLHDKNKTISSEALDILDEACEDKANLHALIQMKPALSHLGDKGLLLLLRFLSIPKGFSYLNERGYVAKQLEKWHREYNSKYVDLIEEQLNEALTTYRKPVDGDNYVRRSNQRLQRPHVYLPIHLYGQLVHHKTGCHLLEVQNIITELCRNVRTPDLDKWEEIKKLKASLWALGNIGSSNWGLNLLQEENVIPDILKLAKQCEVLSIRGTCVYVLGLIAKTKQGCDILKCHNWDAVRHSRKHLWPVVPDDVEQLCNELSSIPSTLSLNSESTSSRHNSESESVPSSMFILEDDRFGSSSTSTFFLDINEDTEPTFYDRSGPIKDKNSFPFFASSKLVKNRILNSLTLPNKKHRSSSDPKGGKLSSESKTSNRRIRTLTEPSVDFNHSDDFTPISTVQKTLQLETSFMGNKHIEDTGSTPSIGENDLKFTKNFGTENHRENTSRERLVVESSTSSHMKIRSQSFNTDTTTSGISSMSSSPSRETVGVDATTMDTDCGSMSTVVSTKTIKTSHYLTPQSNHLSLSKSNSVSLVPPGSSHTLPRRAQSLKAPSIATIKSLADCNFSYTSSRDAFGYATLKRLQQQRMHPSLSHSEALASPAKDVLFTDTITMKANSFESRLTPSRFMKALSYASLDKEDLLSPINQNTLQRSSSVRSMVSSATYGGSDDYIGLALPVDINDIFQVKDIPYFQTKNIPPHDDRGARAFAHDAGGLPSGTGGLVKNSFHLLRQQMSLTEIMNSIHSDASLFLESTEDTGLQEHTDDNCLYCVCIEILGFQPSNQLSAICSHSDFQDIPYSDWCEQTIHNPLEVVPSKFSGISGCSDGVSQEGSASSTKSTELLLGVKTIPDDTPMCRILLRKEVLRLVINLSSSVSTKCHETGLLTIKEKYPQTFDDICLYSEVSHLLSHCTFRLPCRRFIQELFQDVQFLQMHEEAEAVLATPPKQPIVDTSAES

From article PMC10740258 come the findings set out here.

The assay addresses Rictor (endogenous) (human (endogenous in MDA-MB-231 and U87)) (UniProt Q6R327). The experiment in a line: co-IP; IP of endogenous Rictor from MDA-MB-231 cells serum-starved overnight and stimulated with EGF for 10 min; immunoblot. For orientation: A western blot detects proteins with antibodies after separation by electrophoresis.

B1: NUAK1 (endogenous) (protein, UniProt O60285 1-661)
chain: MEGAAAPVAGDRPDLGLGAPGSPREAVAGATAALEPRKPHGVKRHHHKHNLKHRYELQETLGKGTYGKVKRATERFSGRVVAIKSIRKDKIKDEQDMVHIRREIEIMSSLNHPHIISIYEVFENKDKIVIIMEYASKGELYDYISERRRLSERETRHFFRQIVSAVHYCHKNGVVHRDLKLENILLDDNCNIKIADFGLSNLYQKDKFLQTFCGSPLYASPEIVNGRPYRGPEVDSWALGVLLYTLVYGTMPFDGFDHKNLIRQISSGEYREPTQPSDARGLIRWMLMVNPDRRATIEDIANHWWVNWGYKSSVCDCDALHDSESPLLARIIDWHHRSTGLQADTEAKMKGLAKPTTSEVMLERQRSLKKSKKENDFAQSGQDAVPESPSKLSSKRPKGILKKRSNSEHRSHSTGFIEGVVGPALPSTFKMEQDLCRTGVLLPSSPEAEVPGKLSPKQSATMPKKGILKKTQQRESGYYSSPERSESSELLDSNDVMGSSIPSPSPPDPARVTSHSLSCRRKGILKHSSKYSAGTMDPALVSPEMPTLESLSEPGVPAEGLSRSYSRPSSVISDDSVLSSDSFDLLDLQENRPARQRIRSCVSAENFLQIQDFEGLQNRPRPQYLKRYRNRLADSSFSLLTDMDDVTQVYKQALEICSKLN
For the molecule B1, the binding entry is recorded as “binds”.
